The list does not hold the whole screen: it gathers tests that were run many times, whatever their T/C, doses with no T/C, and many T/C values between a quarter and a half above the control. Other doses and runs of a compound stand elsewhere. T/C gives the treated animals as a percentage of the vehicle group. Schedule codes are those of the source, read here as Q, the interval in days (D) or hours (H), X, the number of doses. Some T/C values carry the count of animals alive at the toxicity check (mostly the fifth day); where none is given, no animal had died by that day. Some entries hold several experiments; the values are given in rising order. Some entries give survivors of the animals treated and no T/C: the source holds a T/C of zero for them, seemingly a mark for toxic or unscored doses. Some doses without a T/C left all or most animals alive at the check, yet need not have been tolerated: survival well below the control is almost never listed, so the zero probably covers shortened survival too. Survivors were counted at the toxicity check, usually on the fifth day, unless a day is given; later deaths do not show. Signs of the kind (2×) say how often a value occurs here. For survival time, this PubChem deposit counts one and a half times the control or more as active, and values a quarter to a half above the control carry no call in these data; other NCI protocols may use other cut-offs.
Test system: mice, P1798 lymphosarcoma sc, survival or tumor weight T/C
Assay: NCI In Vivo Anticancer Drug Screen. Data for tumor model P1798 Lymphosarcoma (subcutaneous) in unknown mice
Protocol: The antitumor activity of compounds was measured in mice bearing transplantable tumors. Survival or tumor size were measured and the results are expressed as the measurement made in the treated group (T) divided by the measurement made in the vehicle treated control group (C). The tumor model used in this assay is P1798 Lymphosarcoma (subcutaneous) in unknown mice

[1] = T/C endpoint: median survival time, dose: 18.75 mg/kg/injection, schedule: Q01DX029 (ip), vehicle: saline, higher T/C = longer survival
[2] = T/C endpoint: median survival time, dose: 37.5 mg/kg/injection, schedule: Q01DX029 (ip), vehicle: saline, higher T/C = longer survival
[3] = T/C endpoint: median survival time, dose: 75.0 mg/kg/injection, schedule: Q01DX029 (ip), vehicle: saline, higher T/C = longer survival
[4] = T/C endpoint: median survival time, dose: 150.0 mg/kg/injection, schedule: Q01DX010 (ip), vehicle: saline, higher T/C = longer survival
[5] = T/C endpoint: median survival time, dose: 300.0 mg/kg/injection, schedule: Q01DX010 (ip), vehicle: saline, higher T/C = longer survival
[6] = T/C endpoint: median survival time, dose: 600.0 mg/kg/injection, schedule: Q01DX010 (ip), vehicle: saline, higher T/C = longer survival

C[C@]12C=CC(=O)C=C1CC[C@@H]1[C@@H]2C(=O)C[C@@]2(C)[C@H]1CC[C@]2(O)C(=O)CO
survivor count (T/C endpoint: mean tumor weight, dose: 10.0 mg/kg/injection, schedule: Q01DX010 (sc), vehicle: steroid suspending solution, higher T/C = larger tumour): 5 of 10 | T/C (T/C endpoint: mean tumor weight, dose: 12.5 mg/kg/injection, schedule: Q01DX010 (sc), vehicle: steroid suspending solution, evaluated on day 14, higher T/C = larger tumour): 27, 56, 57 [8 of 10 alive], 64, 87 % of control | T/C (T/C endpoint: mean tumor weight, dose: 12.5 mg/kg/injection, schedule: Q01DX010 (sc), vehicle: steroid suspending solution, evaluated on day 20, higher T/C = larger tumour): 54 % of control [8 of 10 alive] | T/C (T/C endpoint: mean tumor weight, dose: 25.0 mg/kg/injection, schedule: Q01DX010 (sc), vehicle: steroid suspending solution, evaluated on day 14, higher T/C = larger tumour): 22 [9 of 10 alive], 32 [9 of 10 alive], 36 [9 of 10 alive], 42, 54 % of control | T/C (T/C endpoint: mean tumor weight, dose: 25.0 mg/kg/injection, schedule: Q01DX010 (sc), vehicle: steroid suspending solution, evaluated on day 20, higher T/C = larger tumour): 15 % of control [9 of 10 alive] | survivor count (T/C endpoint: mean tumor weight, dose: 25.0 mg/kg/injection, schedule: Q01DX010 (sc), vehicle: steroid suspending solution, higher T/C = larger tumour): 2 of 10 | T/C (T/C endpoint: mean tumor weight, dose: 50.0 mg/kg/injection, schedule: Q01DX010 (sc), vehicle: steroid suspending solution, evaluated on day 14, higher T/C = larger tumour): 1 [8 of 10 alive], 1 [9 of 10 alive], 21 [7 of 10 alive], 28 [9 of 10 alive], 58 % of control [9 of 10 alive] | survivor count (T/C endpoint: mean tumor weight, dose: 50.0 mg/kg/injection, schedule: Q01DX010 (sc), vehicle: steroid suspending solution, higher T/C = larger tumour): 3 of 10 | T/C (T/C endpoint: mean tumor weight, dose: 80.0 mg/kg/injection, schedule: Q01DX010 (sc), vehicle: water, run until all animals had died, higher T/C = larger tumour): 130 % of control | survivor count (T/C endpoint: mean tumor weight, dose: 100.0 mg/kg/injection, schedule: Q01DX010 (sc), vehicle: steroid suspending solution, higher T/C = larger tumour): 0 of 10 and 2 of 10 | survivor count (T/C endpoint: median survival time, dose: 2.34 mg/kg/injection, schedule: Q01DX029 (ip), vehicle: saline, higher T/C = longer survival): 10 of 10 | T/C (T/C endpoint: median survival time, dose: 4.67 mg/kg/injection, schedule: Q01DX029 (ip), vehicle: saline, evaluated on day 5, higher T/C = longer survival): 92 and 97 % of control | T/C (T/C endpoint: median survival time, dose: 4.67 mg/kg/injection, schedule: Q01DX029 (ip), vehicle: saline, evaluated on day 53, higher T/C = longer survival): 97 % of control | T/C (T/C endpoint: median survival time, dose: 4.67 mg/kg/injection, schedule: Q01DX029 (ip), vehicle: saline, evaluated on day 58, higher T/C = longer survival): 92 % of control | T/C (T/C endpoint: median survival time, dose: 9.35 mg/kg/injection, schedule: Q01DX010 (ip), vehicle: saline, evaluated on day 5, higher T/C = longer survival): 88, 94, 101 % of control | T/C (T/C endpoint: median survival time, dose: 9.35 mg/kg/injection, schedule: Q01DX010 (ip), vehicle: saline, evaluated on day 51, higher T/C = longer survival): 94 % of control | T/C (T/C endpoint: median survival time, dose: 9.35 mg/kg/injection, schedule: Q01DX010 (ip), vehicle: saline, evaluated on day 53, higher T/C = longer survival): 88 % of control | T/C (T/C endpoint: median survival time, dose: 9.35 mg/kg/injection, schedule: Q01DX010 (ip), vehicle: saline, evaluated on day 58, higher T/C = longer survival): 101 % of control | T/C (T/C endpoint: median survival time, dose: 18.7 mg/kg/injection, schedule: Q01DX010 (ip), vehicle: saline, evaluated on day 5, higher T/C = longer survival): 100, 106, 110 % of control | T/C (T/C endpoint: median survival time, dose: 18.7 mg/kg/injection, schedule: Q01DX010 (ip), vehicle: saline, evaluated on day 51, higher T/C = longer survival): 110 % of control | T/C (T/C endpoint: median survival time, dose: 18.7 mg/kg/injection, schedule: Q01DX010 (ip), vehicle: saline, evaluated on day 53, higher T/C = longer survival): 100 % of control | T/C (T/C endpoint: median survival time, dose: 18.7 mg/kg/injection, schedule: Q01DX010 (ip), vehicle: saline, evaluated on day 58, higher T/C = longer survival): 106 % of control | survivor count (T/C endpoint: median survival time, dose: 18.75 mg/kg/injection, schedule: Q01DX010 (ip), vehicle: saline, higher T/C = longer survival): 10 of 10 | T/C [1]: 70 and 78 % of control | survivor count [1]: 10 of 10 (2×) | T/C (T/C endpoint: median survival time, dose: 37.5 mg/kg/injection, schedule: Q01DX010 (ip), vehicle: saline, evaluated on day 5, higher T/C = longer survival): 85, 110, 115, 119, 128, 132, 136 % of control | T/C (T/C endpoint: median survival time, dose: 37.5 mg/kg/injection, schedule: Q01DX010 (ip), vehicle: saline, evaluated on day 51, higher T/C = longer survival): 110 and 132 % of control | T/C (T/C endpoint: median survival time, dose: 37.5 mg/kg/injection, schedule: Q01DX010 (ip), vehicle: saline, evaluated on day 58, higher T/C = longer survival): 115 % of control | T/C (T/C endpoint: median survival time, dose: 37.5 mg/kg/injection, schedule: Q01DX010 (ip), vehicle: saline, evaluated on day 60, higher T/C = longer survival): 128 and 130 % of control | T/C (T/C endpoint: median survival time, dose: 37.5 mg/kg/injection, schedule: Q01DX010 (ip), vehicle: saline, evaluated on day 62, higher T/C = longer survival): 136 % of control | survivor count (T/C endpoint: median survival time, dose: 37.5 mg/kg/injection, schedule: Q01DX010 (ip), vehicle: saline, higher T/C = longer survival): 10 of 10 (2×) | T/C (T/C endpoint: median survival time, dose: 37.5 mg/kg/injection, schedule: Q01DX010 (sc), vehicle: saline, evaluated on day 5, higher T/C = longer survival): 138 % of control | T/C (T/C endpoint: median survival time, dose: 37.5 mg/kg/injection, schedule: Q01DX010 (sc), vehicle: saline, evaluated on day 47, higher T/C = longer survival): 138 % of control | survivor count (T/C endpoint: median survival time, dose: 37.5 mg/kg/injection, schedule: Q01DX025 (ip), vehicle: saline, higher T/C = longer survival): 10 of 10 | T/C [2]: 37 and 63 % of control | survivor count [2]: 10 of 10 (2×) | T/C (T/C endpoint: median survival time, dose: 75.0 mg/kg/injection, schedule: Q01DX010 (ip), vehicle: saline, evaluated on day 5, higher T/C = longer survival): 50, 61, 108, 116, 121, 148, 149 % of control | T/C (T/C endpoint: median survival time, dose: 75.0 mg/kg/injection, schedule: Q01DX010 (ip), vehicle: saline, evaluated on day 51, higher T/C = longer survival): 121 and 149 % of control | T/C (T/C endpoint: median survival time, dose: 75.0 mg/kg/injection, schedule: Q01DX010 (ip), vehicle: saline, evaluated on day 60, higher T/C = longer survival): 108 % of control | T/C (T/C endpoint: median survival time, dose: 75.0 mg/kg/injection, schedule: Q01DX010 (ip), vehicle: saline, evaluated on day 62, higher T/C = longer survival): 148 % of control | survivor count (T/C endpoint: median survival time, dose: 75.0 mg/kg/injection, schedule: Q01DX010 (ip), vehicle: saline, higher T/C = longer survival): 9 of 10 (2×) and 10 of 10 (2×) | survivor count (T/C endpoint: median survival time, dose: 75.0 mg/kg/injection, schedule: Q01DX025 (ip), vehicle: saline, higher T/C = longer survival): 10 of 10 | T/C [3]: 40 and 50 % of control | survivor count [3]: 10 of 10 (2×) | T/C [4]: 41, 47 (2×), 49, 55 (2×), 79 % of control | survivor count [4]: 9 of 10 (2×), 10 of 10 (5×), 8 of 8 | survivor count (T/C endpoint: median survival time, dose: 150.0 mg/kg/injection, schedule: Q01DX010 (sc), vehicle: saline, higher T/C = longer survival): 10 of 10 | survivor count (T/C endpoint: median survival time, dose: 150.0 mg/kg/injection, schedule: Q01DX025 (ip), vehicle: saline, higher T/C = longer survival): 10 of 10 | survivor count (T/C endpoint: median survival time, dose: 150.0 mg/kg/injection, schedule: Q01DX029 (ip), vehicle: saline, higher T/C = longer survival): 9 of 10 | T/C [5]: 28, 33, 39 % of control | survivor count [5]: 10 of 10 (2×) and 8 of 8 | survivor count (T/C endpoint: median survival time, dose: 300.0 mg/kg/injection, schedule: Q01DX010 (sc), vehicle: saline, higher T/C = longer survival): 10 of 10 | T/C [6]: 27, 31, 35 % of control | survivor count [6]: 10 of 10 (2×) and 8 of 8 | survivor count (T/C endpoint: median survival time, dose: 600.0 mg/kg/injection, schedule: Q01DX010 (sc), vehicle: saline, higher T/C = longer survival): 10 of 10

CCCCn1cnc2c(=S)nc[nH]c21
T/C (T/C endpoint: mean tumor weight, dose: 25.0 mg/kg/injection, schedule: Q01DX010 (ip), vehicle: carboxymethylcellulose (CMC), evaluated on day 14, higher T/C = larger tumour): 134 % of control | survivor count (T/C endpoint: mean tumor weight, dose: 200.0 mg/kg/injection, schedule: Q01DX010 (ip), vehicle: carboxymethylcellulose (CMC), higher T/C = larger tumour): 0 of 10

c1ccc(COCC[P+](c2ccccc2)(c2ccccc2)c2ccccc2)cc1
survivor count (T/C endpoint: mean tumor weight, dose: 3.0 mg/kg/injection, schedule: Q01DX010 (ip), vehicle: saline, higher T/C = larger tumour): 3 of 6 | survivor count (T/C endpoint: mean tumor weight, dose: 12.0 mg/kg/injection, schedule: Q01DX010 (ip), vehicle: saline, higher T/C = larger tumour): 3 of 6

CC(=O)[C@@]1(O)CC[C@H]2[C@@H]3C[C@H](C)C4=CC(=O)C=C[C@]4(C)[C@@]3(F)[C@@H](O)C[C@@]21C
survivor count (T/C endpoint: mean tumor weight, dose: 125.0 mg/kg/injection, schedule: Q01DX010 (sc), vehicle: steroid suspending solution, higher T/C = larger tumour): 0 of 10 | survivor count (T/C endpoint: mean tumor weight, dose: 250.0 mg/kg/injection, schedule: Q01DX010 (sc), vehicle: steroid suspending solution, higher T/C = larger tumour): 0 of 10 | survivor count (T/C endpoint: mean tumor weight, dose: 500.0 mg/kg/injection, schedule: Q01DX010 (sc), vehicle: steroid suspending solution, higher T/C = larger tumour): 0 of 10 | survivor count (T/C endpoint: mean tumor weight, dose: 1000.0 mg/kg/injection, schedule: Q01DX010 (sc), vehicle: steroid suspending solution, higher T/C = larger tumour): 0 of 10

Nc1ncnc2[nH]ncc12
survivor count (T/C endpoint: mean tumor weight, dose: 25.0 mg/kg/injection, schedule: Q01DX010 (ip), vehicle: carboxymethylcellulose (CMC), higher T/C = larger tumour): 0 of 10 | survivor count (T/C endpoint: mean tumor weight, dose: 50.0 mg/kg/injection, schedule: Q01DX010 (ip), vehicle: carboxymethylcellulose (CMC), higher T/C = larger tumour): 0 of 10

N=[N+]=CC(=O)OCC(N)C(=O)O (configuration not stated)
survivor count (T/C endpoint: mean tumor weight, dose: 10.0 mg/kg/injection, schedule: Q01DX010 (ip), vehicle: saline, higher T/C = larger tumour): 1 of 10 | survivor count (T/C endpoint: mean tumor weight, dose: 20.0 mg/kg/injection, schedule: Q01DX010 (ip), vehicle: saline, higher T/C = larger tumour): 0 of 10
